Taken from: PubChem BioAssay AID1259405 (NCATS, 2018)
Aim: 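Silenced genes that increase secreted GFP made by CHO cells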 (primary screen). Cells: Chinese hamster CHO-K1 ovary cells with stable secreted eGFP expression. Reagent: single siRNA against mouse genes, 0.8 pmol siRNA per well (2 µl of 400 nM stock). Timing: 3 days. Read-out: 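Percent of the per-plate non-targeting control median for intracellular GFP per well by laser scanning cytometry and for cell viability by ATP luminescence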. Scale: GFP, % of control: higher = more GFP per well, higher productivity; viability (ATP), % of control: higher = more viable cells (more ATP). Hit rule: 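Called active when intracellular GFP, relative to negative control, is at or above 120%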.
In all, the deposit lists about 50,000 reagents; this is an unselected part. About 4,000 of all reagents (8%) were called active. 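Mouse siRNA library applied to hamster cells; one well for each siRNA.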 Reagents against one gene are numbered here.

no.	Gene	reagent no.	GFP, % of control	viability (ATP), % of control	outcome
1	Gamt	1	84.4	122	inactive
2	Gamt	2	71.5	62.9	inactive
3	Gpr21	1	122	105	active
4	Gpr21	2	109	102	inactive
5	Gpr21	3	74.7	77.6	inactive
6	Prkcsh	1	79.3	40.8	inactive
7	Prkcsh	2	65.7	87.7	inactive
8	Prkcsh	3	66.4	74.8	inactive
9	Or13n4	1	80.8	81.3	inactive
10	Or13n4	2	72.9	70.3	inactive
11	Or13n4	3	73.4	77.2	inactive
12	Szt2	1	34.4	72.4	inactive
13	Szt2	2	64.9	94.6	inactive
14	Szt2	3	160	150	active
15	Sftpb	1	179	93.8	active
16	Sftpb	2	93	67.8	inactive
17	Sftpb	3	68.7	64.7	inactive
18	Nxf2	1	70.2	79.5	inactive
19	Nxf2	2	69.8	64.1	inactive
20	Nxf2	3	110	77.7	inactive
21	Ankrd6	1	104	66.7	inactive
22	Ankrd6	2	107	97.7	inactive
23	Ankrd6	3	79.3	85.6	inactive
24	Pf4	1	82.9	103	inactive
25	Pf4	2	69.4	101	inactive
26	Pf4	3	77	68.6	inactive
27	Nup160	1	60.4	58.3	inactive
28	Nup160	2	62.6	79	inactive
29	Nup160	3	64	55.2	inactive
30	Toporsl	1	133	113	active
31	Toporsl	2	103	55	inactive
32	Toporsl	3	72.8	50.4	inactive
33	Anp32a	1	87.4	99.3	inactive
34	Anp32a	2	116	75.3	inactive
35	Anp32a	3	85.4	70	inactive
36	Kcnmb2	1	60.2	97	inactive
37	Kcnmb2	2	87.2	79.9	inactive
38	Kcnmb2	3	75.5	27.9	inactive
39	Abca1	1	86.9	79.2	inactive
40	Abca1	2	89.2	92.9	inactive
41	Abca1	3	112	75.8	inactive
42	Chd1l	1	183	88.1	active
43	Chd1l	2	65.5	71.1	inactive
44	Chd1l	3	59.1	72	inactive
45	Map4	1	87	70.3	inactive
46	Map4	2	91.8	95.4	inactive
47	Rnls	1	19.3	18.7	inactive
48	Rnls	2	98.1	84	inactive
49	Rnls	3	108	164	inactive
50	Ldhal6b	1	66.3	61.4	inactive
51	Ldhal6b	2	79.3	64.8	inactive
52	Ldhal6b	3	95.8	85.9	inactive
53	Nphs1	1	83.1	92.1	inactive
54	Nphs1	2	41	48.1	inactive
55	Pgam1	1	72.2	89.1	inactive
56	Pgam1	2	39.6	68.9	inactive
57	Pgam1	3	108	48.4	inactive
58	Arrb1	1	35	78.4	inactive
59	Arrb1	2	56.2	70.6	inactive
60	Rps5	1	60.9	39.8	inactive
61	Rps5	2	97.5	76.2	inactive
62	Rps5	3	102	54.6	inactive
63	Mdm4	1	84	78.1	inactive
64	Mdm4	2	92.6	55.6	inactive
65	Mdm4	3	70.6	95.8	inactive
66	Wapl	1	66.1	55	inactive
67	Wapl	2	70.4	81.4	inactive
68	Wapl	3	112	111	inactive
69	Adam6b	1	62.7	45.8	inactive
70	Adam6b	2	67.3	79.3	inactive
71	Adam6b	3	78.9	90.4	inactive
72	Defb9	1	79.8	99.8	inactive
73	Defb9	2	87.5	82.4	inactive
74	Defb9	3	138	42.2	active
75	Chmp5	1	73.1	58.6	inactive
76	Chmp5	2	84.7	98.4	inactive
77	Chmp5	3	68.1	74.7	inactive
78	Mrpl49	1	86.4	72.6	inactive
79	Mrpl49	2	94.3	88.1	inactive
80	Mrpl49	3	84.4	62.5	inactive
81	Apoc1	1	123	116	active
82	Apoc1	2	38.7	51	inactive
83	Apoc1	3	126	94.5	active
84	Dync2i2	1	107	52.7	inactive
85	Dync2i2	2	55.1	49.7	inactive
86	Dync2i2	3	83.2	53.9	inactive
87	Snx2	1	84.1	105	inactive
88	Snx2	2	86.7	71.1	inactive
89	Kank4	1	21.4	46.2	inactive
90	Kank4	2	68	91.2	inactive
91	Kank4	3	73.7	101	inactive
92	Adgrl3	1	79.6	55.2	inactive
93	Adgrl3	2	55.5	65.6	inactive
94	Adgrl3	3	37.4	32.3	inactive
95	Lgals1	1	78.4	56.6	inactive
96	Lgals1	2	77.1	69.8	inactive
97	Lgals1	3	92	39	inactive
98	Vmn1r6	1	92.9	79.9	inactive
99	Vmn1r6	2	81.8	65.8	inactive
100	Vmn1r6	3	90.3	109	inactive
101	Ccnf	1	97.3	87.3	inactive
102	Ccnf	2	102	86.7	inactive
103	Cdo1	1	59.9	41.9	inactive
104	Cdo1	2	91	78.3	inactive
105	Cdo1	3	90.6	74.7	inactive
106	Gm5622	1	81.6	71.6	inactive
107	Gm5622	2	70.8	41	inactive
108	Gm5622	3	119	54.1	inactive

Copied from the list.
For “viability (ATP), % of control”, Or13n4 #3 is entered as 77.2
Under “GFP, % of control”, Mrpl49 #1 is entered as 86.4
Result of Chd1l #3 under “viability (ATP), % of control”: 72
Under “GFP, % of control”, Chmp5 #2 is entered as 84.7
Under “GFP, % of control”, Adgrl3 #3 is entered as 37.4
Value for Apoc1 #3 in “viability (ATP), % of control”: 94.5
